Results reported in paper PMC7696408.
These are yes or no findings as the source states them, for the method shown. In cells and extracts the contact can be indirect. Here binding means that the protein was enriched with, or labelled near, the bait; the list need not be complete.

B1: CNN2 (protein, UniProt Q99439 1-309)
chain: MSSTQFNKGPSYGLSAEVKNRLLSKYDPQKEAELRTWIEGLTGLSIGPDFQKGLKDGTILCTLMNKLQPGSVPKINRSMQNWHQLENLSNFIKAMVSYGMNPVDLFEANDLFESGNMTQVQVSLLALAGKAKTKGLQSGVDIGVKYSEKQERNFDDATMKAGQCVIGLQMGTNKCASQSGMTAYGTRRHLYDPKNHILPPMDHSTISLQMGTNKCASQVGMTAPGTRRHIYDTKLGTDKCDNSSMSLQMGYTQGANQSGQVFGLGRQIYDPKYCPQGTVADGAPSGTGDCPDPGEVPEYPPYYQEEAGY
B2: S100A11 (protein, UniProt P31949 1-105)
chain: MAKISSPTETERCIESLIAVFQKYAGKDGYNYTLSKTEFLSFMNTELAAFTKNQKDPGVLDRMMKKLDTNSDGQLDFSEFLNLIGGLAMACHDSFLKAVPSQKRT
B3: C14orf133 (protein, UniProt Q9H9C1 1-493)
chain: MNRTKGDEEEYWNSSKFKAFTFDDEDDELSQLKESKRAVNSLRDFVDDDDDDDLERVSWSGEPVGSISWSIRETAGNSGSTHEGREQLKSRNSFSSYAQLPKPTSTYSLSSFFRGRTRPGSFQSLSDALSDTPAKSYAPELGRPKGEYRDYSNDWSPSDTVRRLRKGKVCSLERFRSLQDKLQLLEEAVSMHDGNVITAVLIFLKRTLSKEILFRELEVRQVALRHLIHFLKEIGDQKLLLDLFRFLDRTEELALSHYREHLNIQDPDKRKEFLKTCVGLPFSAEDSAHIQDHYTLLERQIIIEANDRHLESAGQTEIFRKHPRKASILNMPLVTTLFYSCFYHYTEAEGTFSSPVNLKKTFKIPDKQYVLTALAARAKLRAWNDVDALFTTKNWLGYTKKRAPIGFHRVVEILHKNNAPVQILQEYVNLVEDVDTKLNLATKFKCHDVVIDTYRDLKDRQQLLAYRSKVDKGSAEEEKIDALLSSSQIRWKN
B4: GDI2 (protein, UniProt P50395 1-445)
chain: MNEEYDVIVLGTGLTECILSGIMSVNGKKVLHMDRNPYYGGESASITPLEDLYKRFKIPGSPPESMGRGRDWNVDLIPKFLMANGQLVKMLLYTEVTRYLDFKVTEGSFVYKGGKIYKVPSTEAEALASSLMGLFEKRRFRKFLVYVANFDEKDPRTFEGIDPKKTTMRDVYKKFDLGQDVIDFTGHALALYRTDDYLDQPCYETINRIKLYSESLARYGKSPYLYPLYGLGELPQGFARLSAIYGGTYMLNKPIEEIIVQNGKVIGVKSEGEIARCKQLICDPSYVKDRVEKVGQVIRVICILSHPIKNTNDANSCQIIIPQNQVNRKSDIYVCMISFAHNVAAQGKYIAIVSTTVETKEPEKEIRPALELLEPIEQKFVSISDLLVPKDLGTESQIFISRTYDATTHFETTCDDIKNIYKRMTGSEFDFEEMKRKKNDIYGED
B5: GIPC1 (protein, UniProt O14908 1-333)
chain: MPLGLGRRKKAPPLVENEEAEPGRGGLGVGEPGPLGGGGSGGPQMGLPPPPPALRPRLVFHTQLAHGSPTGRIEGFTNVKELYGKIAEAFRLPTAEVMFCTLNTHKVDMDKLLGGQIGLEDFIFAHVKGQRKEVEVFKSEDALGLTITDNGAGYAFIKRIKEGSVIDHIHLISVGDMIEAINGQSLLGCRHYEVARLLKELPRGRTFTLKLTEPRKAFDMISQRSAGGRPGSGPQLGTGRGTLRLRSRGPATVEDLPSAFEEKAIEKVDDLLESYMGIRDTELAATMVELGKDKRNPDELAEALDERLGDFAFPDEFVFDVWGAIGDAKVGRY
B6: NAPA (protein, UniProt P54920 1-295)
chain: MDNSGKEAEAMALLAEAERKVKNSQSFFSGLFGGSSKIEEACEIYARAANMFKMAKNWSAAGNAFCQAAQLHLQLQSKHDAATCFVDAGNAFKKADPQEAINCLMRAIEIYTDMGRFTIAAKHHISIAEIYETELVDIEKAIAHYEQSADYYKGEESNSSANKCLLKVAGYAALLEQYQKAIDIYEQVGTNAMDSPLLKYSAKDYFFKAALCHFCIDMLNAKLAVQKYEELFPAFSDSRECKLMKKLLEAHEEQNVDSYTESVKEYDSISRLDQWLTTMLLRIKKTIQGDEEDLR
B7: NOP58 (protein, UniProt Q9Y2X3 1-529)
chain: MLVLFETSVGYAIFKVLNEKKLQEVDSLWKEFETPEKANKIVKLKHFEKFQDTAEALAAFTALMEGKINKQLKKVLKKIVKEAHEPLAVADAKLGGVIKEKLNLSCIHSPVVNELMRGIRSQMDGLIPGVEPREMAAMCLGLAHSLSRYRLKFSADKVDTMIVQAISLLDDLDKELNNYIMRCREWYGWHFPELGKIISDNLTYCKCLQKVGDRKNYASAKLSELLPEEVEAEVKAAAEISMGTEVSEEDICNILHLCTQVIEISEYRTQLYEYLQNRMMAIAPNVTVMVGELVGARLIAHAGSLLNLAKHAASTVQILGAEKALFRALKSRRDTPKYGLIYHASLVGQTSPKHKGKISRMLAAKTVLAIRYDAFGEDSSSAMGVENRAKLEARLRTLEDRGIRKISGTGKALAKTEKYEHKSEVKTYDPSGDSTLPTCSKKRKIEQVDKEDEITEKKAKKAKIKVKVEEEEEEKVAEEEETSVKKKKKRGKKKHIKEEPLSEEEPCTSTAIASPEKKKKKKKKRENED
B8: RAB12 (protein, UniProt Q6IQ22 1-340)
chain: MLLPLLRSSCFPSSSPGGGGGSGGGGGGGDPGAESRPAAQLQRGAHGPPGPLQRAEAEPGADPPRAAEAEGAPGPGARSRGAGGGGRRAEREPHACMDPGAALQRRAGGGGGLGAGSPALSGGQGRRRKQPPRPADFKLQVIIIGSRGVGKTSLMERFTDDTFCEACKSTVGVDFKIKTVELRGKKIRLQIWDTAGQERFNSITSAYYRSAKGIILVYDITKKETFDDLPKWMKMIDKYASEDAELLLVGNKLDCETDREITRQQGEKFAQQITGMRFCEASAKDNFNVDEIFLKLVDDILKKMPLDILRNELSNSILSLQPEPEIPPELPPPRPHVRCC
B9: RAB23 (protein, UniProt Q9ULC3 1-237)
chain: MLEEDMEVAIKMVVVGNGAVGKSSMIQRYCKGIFTKDYKKTIGVDFLERQIQVNDEDVRLMLWDTAGQEEFDAITKAYYRGAQACVLVFSTTDRESFEAVSSWREKVVAEVGDIPTVLVQNKIDLLDDSCIKNEEAEALAKRLKLRFYRTSVKEDLNVNEVFKYLAEKYLQKLKQQIAEDPELTHSSSNKIGVFNTSGGSHSGQNSGTLNGGDVINLRPNKQRTKKNRNPFSSCSIP
B10: SCAMP1 (protein, UniProt O15126 1-338)
chain: MSDFDSNPFADPDLNNPFKDPSVTQVTRNVPPGLDEYNPFSDSRTPPPGGVKMPNVPNTQPAIMKPTEEHPAYTQIAKEHALAQAELLKRQEELERKAAELDRREREMQNLSQHGRKNNWPPLPSNFPVGPCFYQDFSVDIPVEFQKTVKLMYYLWMFHAVTLFLNIFGCLAWFCVDSARAVDFGLSILWFLLFTPCSFVCWYRPLYGAFRSDSSFRFFVFFFVYICQFAVHVLQAAGFHNWGNCGWISSLTGLNQNIPVGIMMIIIAALFTASAVISLVMFKKVHGLYRTTGASFEKAQQEFATGVMSNKTVQTAAANAASTAASSAAQNAFKGNQI
B11: SRP9 (protein, UniProt P49458 1-86)
chain: MPQYQTWEEFSRAAEKLYLADPMKARVVLKYRHSDGNLCVKVTDDLVCLVYKTDQAQDVKKIEKFHSQLMRLMVAKEARNVTMETE
B12: STX3 (protein, UniProt Q13277 1-289)
chain: MKDRLEQLKAKQLTQDDDTDAVEIAIDNTAFMDEFFSEIEETRLNIDKISEHVEEAKKLYSIILSAPIPEPKTKDDLEQLTTEIKKRANNVRNKLKSMEKHIEEDEVRSSADLRIRKSQHSVLSRKFVEVMTKYNEAQVDFRERSKGRIQRQLEITGKKTTDEELEEMLESGNPAIFTSGIIDSQISKQALSEIEGRHKDIVRLESSIKELHDMFMDIAMLVENQGEMLDNIELNVMHTVDHVEKARDETKKAVKYQSQARKKLIIIIVLVVVLLGILALIIGLSVGLN
B13: STX6 (protein, UniProt O43752 1-255)
chain: MSMEDPFFVVKGEVQKAVNTAQGLFQRWTELLQDPSTATREEIDWTTNELRNNLRSIEWDLEDLDETISIVEANPRKFNLDATELSIRKAFITSTRQVVRDMKDQMSTSSVQALAERKNRQALLGDSGSQNWSTGTTDKYGRLDRELQRANSHFIEEQQAQQQLIVEQQDEQLELVSGSIGVLKNMSQRIGGELEEQAVMLEDFSHELESTQSRLDNVMKKLAKVSHMTSDRRQWCAIAILFAVLLVVLILFLVL
B14: STX7 (protein, UniProt O15400 1-261)
chain: MSYTPGVGGDPAQLAQRISSNIQKITQCSVEIQRTLNQLGTPQDSPELRQQLQQKQQYTNQLAKETDKYIKEFGSLPTTPSEQRQRKIQKDRLVAEFTTSLTNFQKVQRQAAEREKEFVARVRASSRVSGSFPEDSSKERNLVSWESQTQPQVQVQDEEITEDDLRLIHERESSIRQLEADIMDINEIFKDLGMMIHEQGDVIDSIEANVENAEVHVQQANQQLSRAADYQRKSRKTLCIIILILVIGVAIISLIIWGLNH
B15: STX12 (protein, UniProt Q86Y82 1-276)
chain: MSYGPLDMYRNPGPSGPQLRDFSSIIQTCSGNIQRISQATAQIKNLMSQLGTKQDSSKLQENLQQLQHSTNQLAKETNELLKELGSLPLPLSTSEQRQQRLQKERLMNDFSAALNNFQAVQRRVSEKEKESIARARAGSRLSAEERQREEQLVSFDSHEEWNQMQSQEDEVAITEQDLELIKERETAIRQLEADILDVNQIFKDLAMMIHDQGDLIDSIEANVESSEVHVERATEQLQRAAYYQKKSRKKMCILVLVLSVIILILGLIIWLVYKTK
B16: TBC1D10A (protein, UniProt Q9BXI6 1-508)
chain: MAKSNGENGPRAPAAGESLSGTRESLAQGPDAATTDELSSLGSDSEANGFAERRIDKFGFIVGSQGAEGALEEVPLEVLRQRESKWLDMLNNWDKWMAKKHKKIRLRCQKGIPPSLRGRAWQYLSGGKVKLQQNPGKFDELDMSPGDPKWLDVIERDLHRQFPFHEMFVSRGGHGQQDLFRVLKAYTLYRPEEGYCQAQAPIAAVLLMHMPAEQAFWCLVQICEKYLPGYYSEKLEAIQLDGEILFSLLQKVSPVAHKHLSRQKIDPLLYMTEWFMCAFSRTLPWSSVLRVWDMFFCEGVKIIFRVGLVLLKHALGSPEKVKACQGQYETIERLRSLSPKIMQEAFLVQEVVELPVTERQIEREHLIQLRRWQETRGELQCRSPPRLHGAKAILDAEPGPRPALQPSPSIRLPLDAPLPGSKAKPKPPKQAQKEQRKQMKGRGQLEKPPAPNQAMVVAAAGDACPPQHVPPKDSAPKDSAPQDLAPQVSAHHRSQESLTSQESEDTYL
B17: TIMM13 (protein, UniProt Q9Y5L4 1-95)
chain: MEGGFGSDFGGSGSGKLDPGLIMEQVKVQIAVANAQELLQRMTDKCFRKCIGKPGGSLDNSEQKCIAMCMDRYMDAWNTVSRAYNSRLQRERANM

Target: FlagBirA*-HRAS (human) (UniProt P01112)
Assay: proximity labelling; BioID: FlagBirA*-RAS bait in Flp-In T-REx 293 cells, 1 µg/mL tetracycline and 50 µM biotin for 24 h; modified RIPA lysis, Streptavidin Sepharose capture, trypsin, LC-MS/MS; hits at SAINT score ≥ 0.75; labelling radius ~10 nm

Binder	binding
B1	binds
B2	binds
B3	binds
B4	binds
B5	binds
B6	binds
B7	binds
B8	binds
B9	binds
B10	binds
B11	binds
B12	binds
B13	binds
B14	binds
B15	binds
B16	binds
B17	binds
